Measured values from article PMC4934914.
Results are given in words; binding and its absence hold for the method and conditions named. Some results given as binding are weak or reduced against the parent protein; the word gives no strength.

Amino acid sequences for entries named in this document (tags omitted). A change or cut given only in a name is not applied to a line headed by its entry.
UniProt O32164: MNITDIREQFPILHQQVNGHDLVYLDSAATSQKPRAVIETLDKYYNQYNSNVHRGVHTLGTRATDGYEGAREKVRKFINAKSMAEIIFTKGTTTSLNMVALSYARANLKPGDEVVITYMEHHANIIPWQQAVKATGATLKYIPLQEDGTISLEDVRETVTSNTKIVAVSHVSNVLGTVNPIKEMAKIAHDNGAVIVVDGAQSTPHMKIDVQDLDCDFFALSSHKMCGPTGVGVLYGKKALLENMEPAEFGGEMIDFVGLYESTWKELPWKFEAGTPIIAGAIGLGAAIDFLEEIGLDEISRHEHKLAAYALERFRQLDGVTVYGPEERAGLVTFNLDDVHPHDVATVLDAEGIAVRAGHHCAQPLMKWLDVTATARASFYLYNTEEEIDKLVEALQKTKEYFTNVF

Target: T1, Bacillus subtilis frataxin homolog Fra (Bacillus subtilis) (UniProt Q797E6)
T1 sequence: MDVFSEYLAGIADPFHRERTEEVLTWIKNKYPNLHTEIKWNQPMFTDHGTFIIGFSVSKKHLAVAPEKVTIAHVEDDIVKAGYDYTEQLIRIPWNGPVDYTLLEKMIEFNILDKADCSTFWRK
Test: HDX-MS; 60 μM of each component in 25 mM Tris-Cl pH 7.5, 100 mM NaCl; exchange in D2O buffer at 25°C for 15, 30, 60 or 600 s; online pepsin digestion; both purified

Which binding does the source give for “BsSufS/BsSufU complex (from UniProt O32164 1-406; O32163 1-147)” here?
Its binding is “binds”.
